Reference: patent US7547662
Results are given in words; binding and its absence hold for the method and conditions named. Some results given as binding are weak or reduced against the parent protein; the word gives no strength.

Chains of the proteins cited; added tags and fusions are not shown. Residues count along the entry.
UniProt P00760, residues 24-246: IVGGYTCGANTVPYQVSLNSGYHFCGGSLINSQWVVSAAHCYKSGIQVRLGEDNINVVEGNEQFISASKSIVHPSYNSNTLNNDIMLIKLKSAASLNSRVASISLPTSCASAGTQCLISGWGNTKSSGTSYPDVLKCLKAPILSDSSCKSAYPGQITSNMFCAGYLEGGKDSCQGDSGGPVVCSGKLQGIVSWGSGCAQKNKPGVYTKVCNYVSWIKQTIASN

Experiments:
[1] = biological target: Bovine trypsin (Sigma Chemical Co.) (bovine) (UniProt P00760); test: plate screen, adsorbed lysate protein probed with Oregon Green labelled bovine trypsin
[2] = biological target: Bovine trypsin (Sigma Chemical Co.) (bovine) (UniProt P00760); test: library screen and ITC
[3] = biological target: Bovine trypsin (Sigma Chemical Co.) (bovine) (UniProt P00760); test: ITC

binding [1]: binds
binding [2]: binds
binding [3]: binds
B1: Loop i variant from library screening (parental binding agent with loop i RYLRYPS, SEQ ID NO:33) (designed binder, not shown: small tags and cut ends)
chain: MDVQLQASGGGSVQAGGSLRLSCAASRYLRYPSCAGWFRQAPGKEREGVAAINAGAAGTSYADSVKGRFTISQLAGAANVYLLMNSLEPEDTAIYYCAAGHAGAAGAATCGHGLSTAGAAGAPWGQGTQVTVSS
